# Test: Detection of swertisin in oboushibana organs by HPLC pigment analysis
# Parameters: species or system oboushibana (Commelina communis var. hortensis)
smiles,measurement,setting,value
"COc1cc2oc(-c3ccc(O)cc3)cc(=O)c2c(O)c1[C@@H]1O[C@H](CO)[C@@H](O)[C@H](O)[C@H]1O [Swertisin, apigenin 7-methyl-6-C-glycoside]",Swertisin (mg content per 1 g petal fresh weight),oboushibana bract,0.000 mg content per 1 g petal fresh
same,Swertisin (mg content per 1 g petal fresh weight),oboushibana leaf,0.000 mg content per 1 g petal fresh
same,Swertisin (mg content per 1 g petal fresh weight),oboushibana petals Stage 1,3.429 mg content per 1 g petal fresh
same,Swertisin (mg content per 1 g petal fresh weight),oboushibana petals Stage 2,12.081 mg content per 1 g petal fresh
same,Swertisin (mg content per 1 g petal fresh weight),oboushibana petals Stage 3,3.729 mg content per 1 g petal fresh

# From US20220186240A1, “FLAVONE 7-O-METHYLTRANSFERASE GENE AND USE FOR SAME” (Suntory Holdings Limited, priority 2019, published 2022)
